# Measurements: PubChem BioAssay (Tox21)
# Sequences of proteins named here, by UniProt entry; tags and fusion partners are left off. A change or cut given only in a name is not applied to a line headed by its entry.
# UniProt P14416, whole entry, looked up: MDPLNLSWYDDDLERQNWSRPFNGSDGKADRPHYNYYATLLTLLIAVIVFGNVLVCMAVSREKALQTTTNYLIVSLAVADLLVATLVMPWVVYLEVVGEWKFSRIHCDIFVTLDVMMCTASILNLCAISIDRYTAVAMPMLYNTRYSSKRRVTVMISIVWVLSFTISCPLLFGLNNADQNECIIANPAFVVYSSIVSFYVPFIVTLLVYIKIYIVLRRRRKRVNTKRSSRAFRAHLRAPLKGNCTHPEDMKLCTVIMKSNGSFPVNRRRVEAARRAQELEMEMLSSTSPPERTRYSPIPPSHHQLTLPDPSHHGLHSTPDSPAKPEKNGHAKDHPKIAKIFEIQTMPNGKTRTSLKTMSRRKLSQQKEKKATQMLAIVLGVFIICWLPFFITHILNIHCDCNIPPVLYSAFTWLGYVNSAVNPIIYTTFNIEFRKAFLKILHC
# UniProt P28223, whole entry, looked up: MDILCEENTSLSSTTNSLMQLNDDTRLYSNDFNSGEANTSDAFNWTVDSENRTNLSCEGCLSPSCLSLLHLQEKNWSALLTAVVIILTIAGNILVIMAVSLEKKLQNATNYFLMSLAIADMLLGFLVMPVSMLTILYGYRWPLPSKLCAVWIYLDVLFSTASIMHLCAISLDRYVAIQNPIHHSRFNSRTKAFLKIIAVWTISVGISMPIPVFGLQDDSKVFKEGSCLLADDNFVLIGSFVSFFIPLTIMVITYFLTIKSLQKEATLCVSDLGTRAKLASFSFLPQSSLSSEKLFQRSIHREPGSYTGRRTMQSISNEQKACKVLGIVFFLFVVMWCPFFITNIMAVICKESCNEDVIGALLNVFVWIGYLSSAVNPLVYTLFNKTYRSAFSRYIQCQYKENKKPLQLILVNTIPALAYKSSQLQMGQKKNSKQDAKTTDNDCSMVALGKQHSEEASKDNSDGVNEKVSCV
# UniProt P11229: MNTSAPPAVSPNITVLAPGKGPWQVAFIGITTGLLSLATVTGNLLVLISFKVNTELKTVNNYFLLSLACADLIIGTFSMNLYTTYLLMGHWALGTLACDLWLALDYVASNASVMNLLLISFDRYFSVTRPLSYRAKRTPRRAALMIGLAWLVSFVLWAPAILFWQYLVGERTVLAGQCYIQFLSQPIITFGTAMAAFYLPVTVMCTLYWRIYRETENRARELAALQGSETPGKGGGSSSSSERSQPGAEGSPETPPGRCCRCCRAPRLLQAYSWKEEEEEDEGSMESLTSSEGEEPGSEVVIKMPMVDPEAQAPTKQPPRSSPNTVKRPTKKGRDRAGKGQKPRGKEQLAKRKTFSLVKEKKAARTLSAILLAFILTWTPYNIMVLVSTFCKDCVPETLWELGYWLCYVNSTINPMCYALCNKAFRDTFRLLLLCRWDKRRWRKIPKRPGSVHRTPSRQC
# Values joined by “and” are separate entries in the source; they are usually repeats but may differ in a detail not shown here. Equal entries are not always repeated. The shares of active, inactive and inconclusive entries below differ from those in the screen. For part of these data: Where the call is inconclusive, the potency comes from a doubtful curve fit. Some compounds were tested as several samples or in several runs, with calls that do not always agree. Active and inactive are the calls of the source. Unless noted, the call rests on the fitted dose curve.
# How the values were obtained:
# [1] = p53 small molecule agonists, cell-based qHTS assay with human liver microsomes (AID 1963577); details: HCT-116 p53RE-bla with human liver microsomes, ratio, 16 h; activation: at 66 µM (top of the series) unless noted;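 further: p53 response element beta-lactamase reporter cells with liver microsomes plus NADPH; on the % scale 0 is the no-effect control and ±100 the full control effect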
# Procedure, shortened: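 HLM-supplemented p53RE-bla reporter assay: 16 h compound exposure at 37 C, microsomes and NADPH each 0.5 mg/mL final, read by fluorescence intensity.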
# [2] = target: Beta-2 adrenergic receptor (Homo sapiens) (UniProt P07550); assay: Adrenergic beta2 receptor (ADRB2) small molecule agonists, cell-based qHTS assay (AID 1963593); details: CHO-ADRB2 cells, cAMP HTRF, 30 min; further: potency means the concentration at half of the fitted maximal effect;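 on activation: CHO cells stably overexpressing human ADRB2; on the % scale 0 is the no-effect control and ±100 the full control effect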
# Procedure, shortened: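 CHO cells stably over-expressing ADRB2 were plated overnight at 37C, then dosed with compounds plus a stimulation mix containing 100uM IBMX and 25uM Ro-20-1724 for 0.5hr at room temperature. cAMP was measured by HTRF competition, 1hr.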
# [3] = target: D(2) dopamine receptor (Homo sapiens) (UniProt P14416); assay: Dopamine D2 receptor (DRD2) small molecule antagonists, cell-based qHTS assay (AID 1963595; active means well fitted inhibition curve with a large enough effect in the signal ratio in the repeat runs, with a control signal flat; inconclusive means weak or mixed curves, or effect the other way; the % refers to the signal ratio; further: potency means the concentration at half of the fitted maximal effect); details: HEK293-DRD2 cAMP HTRF antagonist mode; activity change, negative = inhibition: at 92.4 µM (top of the series) unless noted
# Procedure, shortened: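 In this cell-based antagonist screen, compounds act for 10 min at room temperature before a 30 min challenge with 12 nM quinpirole and 200 nM NKH477. cAMP is quantified by HTRF competition in DRD2-HEK293 cells containing 0.1 mM Ro20-1724.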
# [4] = p53 small molecule agonists, cell-based qHTS assay with rat liver microsomes (AID 1963578); details: HCT-116 p53RE-bla, beta-lactamase ratio, 16 h; activation: at 66 µM (top of the series) unless noted; further: potency means the concentration at half of the fitted maximal effect; on activation: on the % scale 0 is the no-effect control and ±100 the full control effect
# Procedure, shortened: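 Quantitative HTS of the Tox21 10K library: p53RE-bla cells, rat liver microsomes plus NADPH at 0.5 mg/mL final each, 16 h at 37 C, beta-lactamase fluorescence detection.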
# [5] = p53 small molecule agonists, cell-based qHTS assay with rat liver microsomes: qHTS cell viability counter screen (AID 1963580); further: nearly all actives have a fitted effect of over 45% in size; further: potency means the concentration at half of the fitted maximal effect
# Procedure, shortened: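 HCT-116 p53RE-bla, 4,000 cells/well, 5 h pre-incubation; cpd + rat liver microsomes 0.5 mg/mL + NADPH 0.5 mg/mL (final); 16 h, 37 C; CellTiter-Glo, 30 min RT; luminescence.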
# [6] = cAMP Responsive Elements (CRE) small molecule agonists, cell-based qHTS assay (AID 1963590); details: CRE-bla HEK293T, beta-lactamase FRET ratio, 3 h; activation: at 92.4 µM (top of the series) unless noted; further: potency means the concentration at half of the fitted maximal effect
# Procedure, shortened: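 A CRE-responsive beta-lactamase reporter in HEK 293T cells was used. Treatment ran 3 h at 37 C; detection used LiveBLAzer B/G FRET substrate for 2 h at room temperature.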
# [7] = p53 small molecule agonists, cell-based qHTS assay: qHTS cell viability counter screen (AID 1963581); further: nearly all actives have a fitted effect of over 45% in size; further: potency means the concentration at half of the fitted maximal effect
# Procedure, shortened: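 Following 5 h attachment, HCT-116 p53RE-bla cells took up compound for 16 h at 37 C; the reporter was read with B/G FRET substrate (2 h RT), and viability then via CellTiter-Glo ATP luminescence.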
# [8] = target: 5-hydroxytryptamine receptor 2A (Homo sapiens) (UniProt P28223); assay: 5-hydroxytryptamine receptor 2A (HTR2A) small molecule antagonists, cell-based qHTS assay (AID 1963586); further: nearly all actives have a fitted effect of over 45% in size; further: potency means the concentration at half of the fitted maximal effect
# Procedure, shortened: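 Antagonist-mode intracellular calcium assay: DOI (4 nM) added after 5 min compound pre-incubation at room temperature to dye-loaded HTR2A-CHO cells. Fluorescence followed for 3 min, sampled every second.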
# [9] = p53 small molecule agonists, cell-based qHTS assay with human liver microsomes: qHTS cell viability counter screen (AID 1963579); further: nearly all actives have a fitted effect of over 45% in size; further: potency means the concentration at half of the fitted maximal effect
# Procedure, shortened: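 Viability of p53RE-bla cells is measured as CellTiter-Glo luminescence following a 16 h, 37 C incubation with compound, liver microsomes from human donors and NADPH.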
# [10] = p53 small molecule agonists, cell-based qHTS assay (AID 1963582; active means well fitted activation curve with a large enough effect in the signal ratio in the repeat runs, not every such curve was filed as active; inconclusive means weak or mixed curves; the % refers to the signal ratio; further: potency means the concentration at half of the fitted maximal effect; on activation: on the % scale 0 is the no-effect control and ±100 the full control effect); details: HCT-116 p53RE-bla reporter, beta-lactamase FRET ratio, 16 h; activation: at 66 µM (top of the series) unless noted
# Procedure, shortened: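 In this cell-based concentration-response screen, a p53 response element drives beta-lactamase; cells received DMSO-borne compounds after 5 h culture and were incubated a further 16 h before FRET substrate development.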
# [11] = target: Beta-2 adrenergic receptor (Homo sapiens) (UniProt P07550); assay: Adrenergic beta2 receptor (ADRB2) small molecule antagonists, cell-based qHTS assay (AID 1963592); details: CHO-ADRB2 cells, isoproterenol-stimulated cAMP HTRF ratio, 0.5 h; activity change, negative = inhibition: at 92.4 µM (top of the series) unless noted; further: nearly all actives have a fitted effect of over 50% in size; further: potency means the concentration at half of the fitted maximal effect
# Procedure, shortened: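 Cells (CHO, stable ADRB2 overexpression) incubated 18-20hr at 37C; compounds added from DMSO; agonist mix (1nM isoproterenol, 100uM IBMX, 25uM Ro-20-1724) added; 0.5hr RT; d2-cAMP and anti-cAMP-cryptate added; 1hr RT; 665/615 nm read.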
# [12] = target: 5-hydroxytryptamine receptor 2A (Homo sapiens) (UniProt P28223); assay: 5-hydroxytryptamine receptor 2A (HTR2A) small molecule agonists, cell-based qHTS assay (AID 1963587); further: potency means the concentration at half of the fitted maximal effect; nearly all actives have a fitted effect of over 30% in size
# Procedure, shortened: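 Kinetic calcium-flux fluorescence (2 min, 1 sec intervals) after compound addition in agonist mode. HTR2A-CHO cells were cultured 18 h, then dye-loaded 1 h at 37 C.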
# [13] = target: Muscarinic acetylcholine receptor M1 (Homo sapiens) (UniProt P11229); assay: Cholinergic receptor muscarinic 1 (CHRM1) small molecule antagonists, cell-based qHTS assay (AID 1963588); further: potency means the concentration at half of the fitted maximal effect; nearly all actives have a fitted effect of over 40% in size
# Procedure, shortened: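 CHRM1-CHO calcium-flux assay, antagonist mode. Cells were seeded 18 h, dye-loaded 1 h at 37 C and given compound for 5 min at RT, then acetylcholine was added at 50nM. FDSS fluorescence was read 3 min; 15 concentrations, three runs.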
# [14] = cAMP Responsive Elements (CRE) small molecule antagonists, cell-based qHTS assay (AID 1963591; active means well fitted inhibition curve with a large enough effect in the signal ratio in the repeat runs, not every such curve was filed as active; inconclusive means weak or mixed curves, or effect the other way; the % refers to the signal ratio; further: potency means the concentration at half of the fitted maximal effect); details: CRE-bla HEK293T, beta-lactamase FRET ratio; activity change, negative = inhibition: at 92.4 µM (top of the series) unless noted
# Procedure, shortened: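 HEK293T cells carrying a CRE-driven beta-lactamase reporter receive compound and NKH477 (0.25 uM final) for 3 h. Fluorescence from LiveBLAzer B/G FRET substrate is read after 2 h at room temperature.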
# [15] = target: D(2) dopamine receptor (Homo sapiens) (UniProt P14416); assay: Dopamine D2 receptor (DRD2) small molecule agonists, cell-based qHTS assay (AID 1963594); details: HEK293-DRD2 cAMP HTRF, agonist mode, 30 min; activation: at 92.4 µM (top of the series) unless noted; further: potency means the concentration at half of the fitted maximal effect; nearly all actives have a fitted effect of over 35% in size
# Procedure, shortened: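 cAMP accumulation in DRD2-HEK293 cells measured by HTRF after 1 h detection; compounds added 10 min before NKH477 (200nM […]) forskolin-analogue stimulation, 30 min at room temperature, with Ro20-1724 present at 0.1 mM final.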
# [16] = activation: at 92.4 µM (top of the series) unless noted
smiles,measurement,setting,value
O=C(C(=O)c1ccco1)c1ccco1,Potency,[1],inactive
same,activation,[2]; [16],inconclusive: -2.81%
same,Potency,[3],"inconclusive: 69.1 µM [falling, partial curve, poor fit]"
O=C(O)c1cc(Cl)cc(Cl)c1O,Potency,[4],inactive
same,Potency,[5],"inconclusive: 45.8 µM [rising, partial curve, poor fit]"
same,Potency,[6],"inconclusive: 30.6 µM [rising, partial curve]"
same,activation,[2]; [16],inconclusive: -16.5%
COC(=O)c1ccc(C(=O)O)cc1,activation,[4],inconclusive: -0.553%
same,Potency,[5],inactive
same,Potency,[7],"inconclusive: 50.5 µM [cytotoxic, single point]"
same,Potency,[8],"inconclusive: 0.147 µM [inhibitor, single point]"
same,activation,[2]; [16],inconclusive: -13.9%
COc1ccc(O)cc1,Potency,[4],"inconclusive: 45.8 µM [rising, partial curve, poor fit]"
same,Potency,[9],inactive
same,Potency,[10],"inconclusive: 44.1 µM [falling, single point]"
same,Potency,[11],"inconclusive: 0.211 µM [inhibitor, full curve, poor fit]"
same,Potency,[2]; [16],"inconclusive: 2.43 µM [inhibitor, single point]"
same,activation,[2]; [16],inconclusive: -149% [at 42.5 µM]
same,activation,[2]; at 92.4 µM (top of the series),inactive: 16.1%
CCCCC(CC)COC(=O)CS (stereo not given),activation,[4],inconclusive: 42.4%
same,Potency,[5],"inconclusive: 52 µM [cytotoxic, single point]"
same,Potency,[2]; [16],"inconclusive: 1.1 µM [inhibitor, single point] and inconclusive: 243 nM [inhibitor, single point]"
Nc1ccn([C@H]2CC[C@@H](CO)O2)c(=O)n1,activation,[4],inconclusive: 16.7%
same,Potency,[9],inactive
same,Potency,[10],inactive
same,Potency,[8],"inconclusive: 0.0046 µM [inhibitor, full curve]"
same,Potency,[12],"inconclusive: 60.6 µM [activator, partial curve, poor fit]"
NCCO,activation,[4],inconclusive: 35.8%
same,Potency,[9],active: 36.3 µM
same,Potency,[5],active: 32.4 µM
same,Potency,[7],"inactive and inconclusive: 9.13 µM [cytotoxic, full curve, poor fit]"
same,Potency,[13],"inconclusive: 941 nM [inhibitor, full curve] and active: 18.8 µM"
same,activation,[6],inconclusive: 0.0413%
same,"activity change, negative = inhibition",[14],inconclusive: -10.9%
same,Potency,[11],"inconclusive: 0.0019 µM [falling, full curve, poor fit]"
same,Potency,[2]; [16],"inconclusive: 0.077 µM [inhibitor, full curve, poor fit]"
same,activation,[2]; [16],inconclusive: -16.4%
same,Potency,[15],"inconclusive: 1.72 µM [rising, partial curve, poor fit]"
same,"activity change, negative = inhibition",[3],inconclusive: -29.4%
Cc1cc(N)c(S(=O)(=O)O)cc1Cl,Potency,[4],inactive
same,Potency,[7],inactive
same,Potency,[10],inactive
same,Potency,[11],inactive
same,Potency,[2]; [16],"inconclusive: 5.51 µM [activator, full curve, poor fit]"
CCOC(=O)O[C@H](C)OC(=O)c1ccc2c(c1)cc(C(=O)NC1CCN(C(C)C)CC1)n2Cc1cc(-c2ccc(Cl)s2)on1,Potency,[4],inactive
same,Potency,[5],"inconclusive: 48 µM [cytotoxic, single point]"
same,Potency,[7],active: 38.1 µM
same,Potency,[10],inconclusive: 48 µM [single point]
same,Potency,[13],"inconclusive: 4.41 µM [inhibitor, full curve]"
same,activation,[6],inconclusive: 1.65%
same,Potency,[14],"inconclusive: 22.7 µM [rising, single point]"
same,"activity change, negative = inhibition",[11],inconclusive: -59.4%
same,Potency,[2]; [16],inconclusive: 64.1 µM [inhibitor]
same,Potency,[15],"inconclusive: 25.5 µM [falling, single point]"
same,Potency,[3],active: 50.9 µM
C=C(C)C1CCC(C)(O)CC1 (stereo not given),activation,[1],inconclusive: 23%
same,Potency,[2]; [16],inactive
same,Potency,[3],"inconclusive: 61.1 µM [inhibitor, single point]"
Cc1nc2ccccn2c(=O)c1CCN1CCC(C(=O)c2ccc(F)cc2)CC1,Potency,[4],inactive
same,Potency,[9],inactive
same,Potency,[5],inactive
same,"activity change, negative = inhibition",[14],inconclusive: 0.101% [at 42.4 µM]
same,"activity change, negative = inhibition",[11],inconclusive: -38.2% [at 42.5 µM]
same,Potency,[2]; [16],"inconclusive: 6.68 µM [inhibitor, full curve, poor fit]"
same,Potency,[3],active: 0.531 µM
CC1(C)[C@H]2CC[C@](C)(C2)[C@H]1O,Potency,[1],inactive
same,Potency,[2]; [16],inactive
same,"activity change, negative = inhibition",[3],inconclusive: -17.6%
Cc1cc(=O)oc2cc(O)ccc12,Potency,[4],"active: 36.3 µM and active: 22.9 µM and inconclusive: 19.9 µM [activator, partial curve]"
same,Potency,[9],inactive
same,Potency,[8],inactive
same,Potency,[6],inconclusive: 54.5 µM [fluorescent] and inconclusive: 48.6 µM [fluorescent]
same,Potency,[14],"inconclusive: 61.1 µM [activator] and inconclusive: 61.1 µM [activator, partial curve] and inconclusive: 21.1 µM [activator, partial curve, poor fit]"
same,Potency,[15],"inconclusive: 54.5 µM [rising, single point]"
same,"activity change, negative = inhibition",[3],inconclusive: 25.1% and inconclusive: 31%

# Another view of some results above:
smiles | measurement | setting | value
O=C(C(=O)c1ccco1)c1ccco1 | Potency | [1] | inactive
same | activation | [2]; [16] | inconclusive: -2.81%
same | Potency | [3] | inconclusive: 69.1 µM [falling, partial curve, poor fit]
O=C(O)c1cc(Cl)cc(Cl)c1O | Potency | [4] | inactive

# Quoted at random: 2 records from the list, in no set order.
smiles,measurement,setting,value
CCCCC(CC)COC(=O)CS (stereo not given),Potency,[2]; [16],"inconclusive: 1.1 µM [inhibitor, single point] and inconclusive: 243 nM [inhibitor, single point]"
COC(=O)c1ccc(C(=O)O)cc1,Potency,[5],inactive
